Source: publication doi:10.1101/2025.08.04.668477
These are yes or no findings as the source states them, for the method shown. In cells and extracts the contact can be indirect. These calls come from enrichment with a bait or labelling near it, and not all partners need be listed.

Sequences of proteins named here, by UniProt entry; tags and fusion partners are left off. A change or cut given only in a name is not applied to a line headed by its entry.
UniProt P10275, whole entry, looked up, stated change not applied: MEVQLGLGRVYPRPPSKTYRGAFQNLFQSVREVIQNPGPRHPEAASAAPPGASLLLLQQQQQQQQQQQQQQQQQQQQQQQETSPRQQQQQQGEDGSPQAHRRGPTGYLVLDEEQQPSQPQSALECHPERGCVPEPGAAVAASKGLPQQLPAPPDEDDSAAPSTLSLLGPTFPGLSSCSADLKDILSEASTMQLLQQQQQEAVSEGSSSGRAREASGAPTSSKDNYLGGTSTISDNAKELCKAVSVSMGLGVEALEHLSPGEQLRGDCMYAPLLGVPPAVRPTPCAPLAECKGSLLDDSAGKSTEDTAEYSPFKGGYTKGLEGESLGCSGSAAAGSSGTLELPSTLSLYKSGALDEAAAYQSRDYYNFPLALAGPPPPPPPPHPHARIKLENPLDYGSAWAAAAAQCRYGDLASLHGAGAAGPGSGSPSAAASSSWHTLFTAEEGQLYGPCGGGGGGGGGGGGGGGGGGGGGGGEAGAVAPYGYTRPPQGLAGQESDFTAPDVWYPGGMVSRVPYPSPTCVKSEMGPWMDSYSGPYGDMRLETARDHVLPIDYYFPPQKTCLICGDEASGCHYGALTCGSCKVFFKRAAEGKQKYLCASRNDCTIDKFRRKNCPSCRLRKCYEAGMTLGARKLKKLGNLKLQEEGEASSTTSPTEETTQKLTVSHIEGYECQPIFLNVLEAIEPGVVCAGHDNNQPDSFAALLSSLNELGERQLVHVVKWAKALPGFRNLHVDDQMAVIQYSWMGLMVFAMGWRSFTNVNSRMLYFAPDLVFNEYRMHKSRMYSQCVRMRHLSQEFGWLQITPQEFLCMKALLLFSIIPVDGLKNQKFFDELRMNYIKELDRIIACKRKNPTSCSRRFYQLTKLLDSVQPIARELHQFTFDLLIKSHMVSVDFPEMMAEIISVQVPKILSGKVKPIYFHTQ
UniProt Q09472, whole entry: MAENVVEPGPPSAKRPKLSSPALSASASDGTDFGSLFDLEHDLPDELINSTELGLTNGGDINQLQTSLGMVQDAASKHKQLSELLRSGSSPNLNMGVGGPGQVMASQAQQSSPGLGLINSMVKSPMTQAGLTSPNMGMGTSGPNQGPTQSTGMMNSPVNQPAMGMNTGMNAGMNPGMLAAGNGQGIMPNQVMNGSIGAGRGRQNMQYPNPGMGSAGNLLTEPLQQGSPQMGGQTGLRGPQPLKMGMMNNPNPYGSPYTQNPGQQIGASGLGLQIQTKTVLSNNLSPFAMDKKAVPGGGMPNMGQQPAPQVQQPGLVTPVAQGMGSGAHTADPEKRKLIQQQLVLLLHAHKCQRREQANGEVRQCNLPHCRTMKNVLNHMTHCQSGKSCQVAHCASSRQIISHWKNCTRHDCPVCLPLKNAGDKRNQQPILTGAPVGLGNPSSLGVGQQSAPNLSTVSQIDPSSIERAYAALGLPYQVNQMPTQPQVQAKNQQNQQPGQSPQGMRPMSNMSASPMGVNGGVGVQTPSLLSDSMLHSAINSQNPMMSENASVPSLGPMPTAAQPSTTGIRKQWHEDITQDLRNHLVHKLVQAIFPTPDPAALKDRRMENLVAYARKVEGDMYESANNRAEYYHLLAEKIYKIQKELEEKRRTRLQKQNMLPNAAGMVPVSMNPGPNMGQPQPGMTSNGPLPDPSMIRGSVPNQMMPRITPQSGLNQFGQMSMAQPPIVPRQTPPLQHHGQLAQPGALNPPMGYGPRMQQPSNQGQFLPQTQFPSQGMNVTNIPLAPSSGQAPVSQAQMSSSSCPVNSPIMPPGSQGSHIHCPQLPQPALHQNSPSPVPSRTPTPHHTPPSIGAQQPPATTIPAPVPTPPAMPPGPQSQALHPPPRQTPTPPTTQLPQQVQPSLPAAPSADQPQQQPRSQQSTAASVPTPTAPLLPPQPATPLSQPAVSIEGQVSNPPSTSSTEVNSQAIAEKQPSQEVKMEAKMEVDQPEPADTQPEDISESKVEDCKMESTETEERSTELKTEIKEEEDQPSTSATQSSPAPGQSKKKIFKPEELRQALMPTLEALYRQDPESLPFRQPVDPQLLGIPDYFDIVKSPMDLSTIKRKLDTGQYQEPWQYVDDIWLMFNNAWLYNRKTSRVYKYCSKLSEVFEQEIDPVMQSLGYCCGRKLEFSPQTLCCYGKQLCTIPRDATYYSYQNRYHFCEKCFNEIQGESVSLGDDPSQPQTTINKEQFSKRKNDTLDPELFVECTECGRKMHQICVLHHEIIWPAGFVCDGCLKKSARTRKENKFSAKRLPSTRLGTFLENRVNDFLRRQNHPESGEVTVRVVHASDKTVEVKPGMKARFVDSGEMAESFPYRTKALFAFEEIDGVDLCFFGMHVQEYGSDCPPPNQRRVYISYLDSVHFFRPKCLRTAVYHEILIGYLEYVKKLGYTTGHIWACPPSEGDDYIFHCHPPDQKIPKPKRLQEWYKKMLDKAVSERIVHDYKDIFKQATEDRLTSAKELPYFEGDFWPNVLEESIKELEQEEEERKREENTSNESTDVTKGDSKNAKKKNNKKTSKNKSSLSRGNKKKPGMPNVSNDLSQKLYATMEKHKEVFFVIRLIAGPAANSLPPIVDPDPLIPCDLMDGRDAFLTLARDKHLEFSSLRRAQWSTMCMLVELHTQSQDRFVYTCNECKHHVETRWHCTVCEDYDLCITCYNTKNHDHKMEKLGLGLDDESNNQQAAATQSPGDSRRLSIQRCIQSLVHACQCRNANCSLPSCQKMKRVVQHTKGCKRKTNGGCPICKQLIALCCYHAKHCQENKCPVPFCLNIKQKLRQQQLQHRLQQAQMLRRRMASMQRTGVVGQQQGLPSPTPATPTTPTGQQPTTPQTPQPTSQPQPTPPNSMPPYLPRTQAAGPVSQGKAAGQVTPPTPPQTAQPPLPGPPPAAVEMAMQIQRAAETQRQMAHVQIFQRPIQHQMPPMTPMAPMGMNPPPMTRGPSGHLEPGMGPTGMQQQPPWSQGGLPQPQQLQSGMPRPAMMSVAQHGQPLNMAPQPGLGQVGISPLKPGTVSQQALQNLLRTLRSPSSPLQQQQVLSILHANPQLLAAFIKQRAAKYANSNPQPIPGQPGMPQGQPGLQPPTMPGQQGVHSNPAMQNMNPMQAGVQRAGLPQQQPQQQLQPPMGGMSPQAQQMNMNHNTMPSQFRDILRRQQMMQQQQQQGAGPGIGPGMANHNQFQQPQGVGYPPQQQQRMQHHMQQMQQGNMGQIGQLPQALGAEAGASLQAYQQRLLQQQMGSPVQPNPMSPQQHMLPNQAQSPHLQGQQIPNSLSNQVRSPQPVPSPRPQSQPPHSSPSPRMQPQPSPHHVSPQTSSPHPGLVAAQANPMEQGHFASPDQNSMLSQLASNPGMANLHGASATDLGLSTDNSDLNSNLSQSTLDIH

Assays:
AR-V7 BioID bait = AR-V7 BioID bait (UniProt P10275); test: proximity labelling
p300 BioID bait = p300 BioID bait (UniProt Q09472); test: proximity labelling

## Yin Yang 1 (endogenous) (from UniProt P25490 1-414)
AR-V7 BioID bait
  binding: binds
p300 BioID bait
  binding: binds
